PubChem BioAssay AID1224826 | NIAID – 2016
The whole screen tested about 17,000 reagents; this is a part drawn at random. Of all reagents, about 1,110 (6.6%) got an active call. 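Active means lowered or raised reporter signal; replicate intensities are raw and not normalised per plate.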 Entries without a mark were called inactive. Not all columns of the deposit are shown.

- Assay: 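Knock-downs that raise or lower Tnf reporter signal after endotoxin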 (primary screen)
- System: RAW264.7 G9 macrophages from mouse bearing reporters for p65 (GFP) and the Tnf promoter (mCherry)
- Reagent: siRNA pool against mouse genes, 100 nM
- Timing: 16 h of LPS stimulation, after 2 days of siRNA transfection
- Challenge: bacterial lipopolysaccharide (Salmonella minnesota R595), 10 ng/ml
- Measured: 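Nuclear mCherry signal of the Tnf promoter reporter measured by imaging after background removal, scaled to each plate median and turned into robust z-scores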
- Direction: Tnf reporter robust z-score: higher = stronger Tnf promoter reporter signal after LPS
- Call rule: 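a well counts as active at a score of -1.3 or below (Tlr4 knock-down control median) or above 3 (raised signal); controls and wells holding fewer than 50 cells are excluded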
- Meaning of the calls: active = Tnf reporter clearly lowered or raised; inactive = no clear change in Tnf reporter

Dhps (deoxyhypusine synthase) | Tnf reporter robust z-score = -0.62; fewer than 50 cells in well = enough cells in well
Ccn4 (cellular communication network factor 4) | Tnf reporter robust z-score = 0.92; fewer than 50 cells in well = enough cells in well
Sft2d2 (SFT2 domain containing 2) | fewer than 50 cells in well = fewer than 50 cells per well; well left out of calls
Extl1 (exostosin-like glycosyltransferase 1) | Tnf reporter robust z-score = -0.49; fewer than 50 cells in well = enough cells in well
Egln1 (egl-9 family hypoxia-inducible factor 1) | Tnf reporter robust z-score = -2.02 (active); fewer than 50 cells in well = enough cells in well
Ferry3 (FERRY endosomal RAB5 effector complex subunit 3) | Tnf reporter robust z-score = 1.64; fewer than 50 cells in well = enough cells in well
Sell (selectin, lymphocyte) | Tnf reporter robust z-score = -0.43; fewer than 50 cells in well = enough cells in well
Or1j11 (olfactory receptor family 1 subfamily J member 11) | Tnf reporter robust z-score = -0.81; fewer than 50 cells in well = enough cells in well
Dusp12 (dual specificity phosphatase 12) | Tnf reporter robust z-score = -0.79; fewer than 50 cells in well = enough cells in well
Jmy (junction-mediating and regulatory protein) | Tnf reporter robust z-score = -0.74; fewer than 50 cells in well = enough cells in well
Perp (PERP, TP53 apoptosis effector) | Tnf reporter robust z-score = -1.07; fewer than 50 cells in well = enough cells in well
Zfp112 (zinc finger protein 112) | fewer than 50 cells in well = fewer than 50 cells per well; well left out of calls
Plod3 (procollagen-lysine, 2-oxoglutarate 5-dioxygenase 3) | Tnf reporter robust z-score = -0.29; fewer than 50 cells in well = enough cells in well
Il12b (interleukin 12b) | Tnf reporter robust z-score = -0.6; fewer than 50 cells in well = enough cells in well
